Source: PubChem BioAssay AID493014 (National Center for Advancing Translational Sciences (NCATS), 2011)
The list shows a part of the results. Shown are side measurements of this screen, not its main read-out; they come without a call. The list favours compounds with an active or inconclusive main result. Potencies come from curve fits of mixed quality, noted in brackets.

Assay: qHTS Assay to Find Inhibitors of Chronic Active B-Cell Receptor Signaling
Conditions: ABC-DLBCL IkBa-CBG/CBR reporter, luminescence ratio (green luciferase fused to IkBa over red control in TMD8 lymphoma cells), 4 h
Outline: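 TMD8 human ABC-DLBCL cells with doxycycline-inducible IκBα–green luciferase fusion and unfused red luciferase, in 0.5% FBS medium; compounds up to 46 uM, 4 h at 37C. Green/red luminescence ratio, filter-overlap corrected, fitted to concentration-response curves.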

[1] = measured here: CBR red luminescence, cell number
[2] = measured here: IkBa-CBG green luminescence

Row | Structure (SMILES) | AC50 [1] | AC50 [2]
1 | C=CCn1c(SC2CCOC2=O)nc2sc(C)c(C)c2c1=O (stereo not drawn) | 3.66 µM [rising, full curve, poor fit] | 25.9 µM [falling, partial curve, poor fit]
2 | COc1ccc(-c2ccc3c(c2)S(=O)(=O)c2cccc(C(=O)NCc4ccccc4Cl)c2C3=O)cc1OC |  | 10.3 µM [falling, partial curve, poor fit]
3 | Cc1ccc(-n2c(Cc3cccc4ccccc34)n[nH]c2=S)c(C)c1 | 12.6 µM [rising, partial curve, poor fit] | 
4 | NS(=O)(=O)c1cccc(NC(=O)/C=C/c2cccs2)c1 | 14.1 µM [falling, partial curve] | 
5 | COc1ccc2nc3oc(C(=O)N4CCC(C(N)=O)CC4)cc3cc2c1 | 1.78 µM [falling, full curve] | 
6 | O=C(Nc1ncc2c(n1)-c1ccccc1CC2)c1ccc(F)cc1 | 15.8 µM [falling, partial curve, poor fit] | 
7 | COc1ccccc1/C=C1\S/C(=N/NC(=O)c2cccc(Br)c2)NC1=O | 1.41 µM [falling, full curve] | 
8 | CCCCN(CCCC)CCCNC(=O)C12CN(Cc3ccccc3)CC1C(c1cccc([N+](=O)[O-])c1)=NO2 (stereo not drawn) | 29.1 µM [falling, single point] | 
9 | CCc1nc(SCC(=O)c2cc(C)ccc2C)n[nH]1 | 18.4 µM [falling, single point] | 
10 | C/C(=C\c1ccccc1)C1NC(=O)c2c(sc3c2CCCC3)N1 (stereo not drawn) | 13 µM [rising, partial curve, poor fit] | 
11 | CCC(CC)NCCOC(=O)c1ccc([N+](=O)[O-])cc1 | 1.12 µM [falling, partial curve, poor fit] | 
12 | Cc1nc2c(sc(=S)n2Cc2ccco2)c(=O)n1CC(=O)Nc1ccc(F)cc1 | 10 µM [falling, partial curve, poor fit] | 
13 | Cc1cc(C)c2c(NC(N)=S)n[nH]c2n1 | 22.4 µM [falling, single point] | 
14 | COc1ccccc1N(CC(=O)NC1CCCC1)C(=O)c1oc(C(C)(C)C)cc1C | 25.1 µM [falling, single point] | 
15 | CNc1nc(Sc2cccc(C(F)(F)F)c2)cc(C(F)(F)F)n1 | 20 µM [rising, partial curve, poor fit] | 
16 | Cc1ccccc1-n1c(SCc2c(C)noc2C)nnc1-c1c[nH]c2ccccc12 | 1.41 µM [rising, full curve, poor fit] | 
17 | O=[N+]([O-])c1cccc(/C=C/c2ccccn2)c1 | 0.0891 µM [rising, full curve, poor fit] | 
18 | C/C(=N\NC(=S)NCCc1ccccc1)c1ccc(O)cc1O | 3.55 µM [falling, partial curve, poor fit] | 
19 | CNC(=O)COC(=O)c1ccccc1NC(=O)c1ccco1 | 10 µM [falling, partial curve] | 
20 | O=C(COc1ccc(F)cc1)N(Cc1cccc(Br)c1)C1CCS(=O)(=O)C1 (stereo not drawn) | 10 µM [falling, partial curve, poor fit] | 

Row | Structure (SMILES) | AC50 [1] | AC50 [2]
21 | Cc1ccc(C(=O)N/N=C\c2sccc2C)cn1 | 14.1 µM [falling, partial curve, poor fit] | 
22 | Cc1cccc(C(=O)Oc2ccccc2/C=N/Nc2ccc([N+](=O)[O-])cc2)c1 | 1.84 µM [rising, partial curve] | 
23 | CCNC(=O)NC(=O)C(C)Sc1nnc(COc2ccccc2Cl)o1 (stereo not drawn) | 29.1 µM [rising, single point] | 
24 | O=C(O)c1ccc(N/N=C/c2ccc3c(c2)OCO3)cc1 | 0.282 µM [falling, full curve, poor fit] | 
25 | COc1ccc(-n2cnnc2SCC(=O)NCc2cccs2)cc1 | 29.1 µM [rising, single point] | 
26 | Cc1cc(S(=O)(=O)NC(C)C)ccc1OCC(=O)N1CCOCC1 | 18.4 µM [falling, single point] | 23.1 µM [rising, partial curve, poor fit]
27 | CC(=O)c1ccc(C#CC(C)(C)O)s1 | 29.1 µM [rising, single point] | 
28 | Cc1cc(C)c(N=C2SCC(=O)N2Cc2ccco2)c(C)c1 | 3.98 µM [rising, single point] | 
29 | COc1cc2c(c(OC)c1OC)-c1ccc(NC(=O)c3ccc(F)cc3)c(=O)cc1[C@@H](NC(C)=O)CC2 | 22.4 µM [falling, single point] | 22.4 µM [falling, single point]
30 | N#C/C(=C/c1cccs1)c1ccccn1 | 2.51 µM [rising, partial curve, poor fit] | 
31 | CC(=O)c1ccc(N/C=C/C(=O)c2ccc(Br)cc2)cc1 | 31.6 µM [rising, partial curve, poor fit] | 
32 | Nc1[nH]c(N=NC(=O)c2ccccc2)c2ccccc12 | 1.46 µM [falling, full curve] | 
33 | CC(C)NC(=S)NN=C1c2ccccc2-c2ccccc21 | 12.6 µM [rising, partial curve] | 35.5 µM [falling, partial curve, poor fit]
34 | CCc1nnc(NC(=O)CSc2sc3c(O)cc(=O)[nH]c3c2C#N)s1 | 0.562 µM [falling, partial curve, poor fit] | 
35 | COc1ccc(CCN(C(=O)c2cccc(F)c2)C2CC(=O)N(c3ccccc3)C2=O)cc1 (stereo not drawn) | 0.13 µM [falling, full curve, poor fit] | 
36 | C/C(CC(O)(/C=N/O)c1ccccc1)=N\O (stereo not drawn) | 0.461 µM [rising, partial curve, poor fit] | 
37 | CCCSc1nc(C)cc(=O)[nH]1 | 6.51 µM [falling, single point] | 
38 | O=c1c2ccccc2nnn1CSc1nnc(-c2cccc(S(=O)(=O)N3CCCCC3)c2)o1 | 5.8 µM [falling, partial curve, poor fit] | 
39 | CCN(CC)S(=O)(=O)c1ccc2c(c1)c(C(=O)O)cn2C | 2.59 µM [rising, partial curve, poor fit] | 

Reprinted at random: two records from the list.
Row | Structure (SMILES) | AC50 [1] | AC50 [2]
15 | CNc1nc(Sc2cccc(C(F)(F)F)c2)cc(C(F)(F)F)n1 | 20 µM [rising, partial curve, poor fit] | 
1 | C=CCn1c(SC2CCOC2=O)nc2sc(C)c(C)c2c1=O (stereo not drawn) | 3.66 µM [rising, full curve, poor fit] | 25.9 µM [falling, partial curve, poor fit]
